# Paper PMC10845952
# T1: MecA with C-terminal tandem affinity purification (TAP) tag (3x HA + FLAG) (S. mutans) (UniProt Q8DW33)
# T1 sequence: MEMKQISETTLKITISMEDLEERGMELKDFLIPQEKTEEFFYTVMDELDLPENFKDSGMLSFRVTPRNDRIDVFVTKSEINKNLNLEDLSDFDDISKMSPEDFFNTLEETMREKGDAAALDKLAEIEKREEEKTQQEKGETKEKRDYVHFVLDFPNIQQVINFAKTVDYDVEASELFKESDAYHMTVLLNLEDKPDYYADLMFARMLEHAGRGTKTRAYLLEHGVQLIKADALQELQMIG
# Target: T1, MecA with C-terminal tandem affinity purification (TAP) tag (3x HA + FLAG) (S. mutans)
# Assay: affinity purification with mass spectrometry; MecA with C-terminal TAP tag (3x HA + FLAG) as bait; S. mutans grown to mid-logarithmic phase, formaldehyde crosslinked; anti-FLAG affinity resin, then anti-HA affinity resin; LC-MS/MS; three experiments; >=2-fold enrichment of spectral counts over the untagged wild type
row,Binder,binding
1,"2-isopropylmalate synthase, LeuA (protein, UniProt Q8DTG2 1-521) MRKVEFLDTTLRDGEQTPGVNFSIKEKVAIAKQLEKWGISDIEAGFPAASPDSFEAVKQIAAAMTTTAVSGLARSVKSDIDACYEALKDAKFPQCHVFIATSPIHREFKLKKSKEEILEVIKEHVTYARSKFDVIEFSPEDATRTELDFLLQVVQTAVDAGATYINIPDTVGFTTPVEFGHIFKYLIENVKSDRDIIFSPHCHDDLGMATANTLAAIKNGAGRVEGTVNGIGERAGNVALEEVAVALNIREDYYDATSAIVLDETVTTSEMVSRFSGIPIPKNKAVVGGNAFSHESGIHQDGFLKNPLTYEIITPELVGVKKSSLPLGKLSGRHAFIEKLKELKLDFEEGEVAPLFAKFKSLADKKHDITDADIRALVAGTSVENPEGFHFKDLRLTSNDDDTITAQVIMVNEGEEEVTIIANGKGSVEAIFNAVDKFFNQTVKLDSYNIEAVTDGIDAQARVLVSVENIDTDTIFNASGLDFDVLKASAIAYINANTFVQKENAGEIGHKVSERDYPSND",binds
2,"50S ribosomal protein L4 (protein, UniProt Q8DS17 1-207) MANVKLFDQTGKEAGEVTLNDAIFGIEPNESVVFDVIISQRANLRQGTHAVKNRSAVSGGGRKPWRQKGTGRARQGSIRAPQWRGGGVVFGPTPRSYGYKLPQKVRRLALKSVYSAKVADEKFVAVDALSFEAPKTKEFATVLAALNVDSKVLVILEEGNQAAELSARNLPNVKVATAATASVLDIVNSDKLLVTKEAISNIEEVLA",binds
3,"Acetolactate synthase large subunit, IlvB (protein, UniProt Q8DW45 1-567) MEKIYLENPKSGSEILLDTLANLGVKTIFGYPGGAVLPLYDAIYKQDNIRHILARHEQGAVHEAEGFAKSTGKLGVAIVTSGPGATNAITGIADAMSDSVPMLVFTGQVATPGIGKDAFQEADIIGITMPITKYNYQIRETADIPRIVTEAVHIATTGRPGPVVIDLPKDVSEKRVSSFNETTIKIPGYQPTIEPNNLQVKKILSQLKKAKKPLILAGGGVNYAGASAELIAFAERYKIPVVSTLLSLGVMPIEHPLSLGMGGMHGSYASNMALTECDFLINFGSRFADRLTGNPKTFAQKAVVAHVDIDPAEIGKVVKTAIPVVGDAKKTLKQLLESDKVSTRHREWTDKVLQDKAKAPFSYKFDQEVIKPQHAIETIGKLTKGDAIIITDVGQHQMWAAQFYPYKNERQIITSGGLGTMGFGIPAAVGAKLANPGKEVVLFVGDGGFQMTNQELAILNGYGVPIKLVLINNHSLGMVRQWQESFYDERRSESTFDDEPNFQLLAESYGISHYKLDNPLTLEKDLEVILENKPMLIEVDISNREHVYPMVPSGKSNAEMLGVTFNA",binds
4,"DNA primase, DnaG (protein, UniProt Q8DUS6 1-592) MVVDKEKIKEIKDSINIVDVIGEVVSLSRSGRNYLGLCPFHKEKTPSFNVIEDRQFFHCFGCGRSGDVFKFVEDYRNISFLESVQVLAERSGINVTLQDKSQEVKKEHPHQKLFNINGDANKFYQAVLKTTKVGETARQYLYERGLTDELITYFKIGLAPNEYDYLYQAMLKKYDEDTIINSGLFNLSDSNSIYDAFRNRIMFPLTDEFGHIIGFSGRIWTEEDTSKKLAKYKNTRSTIIFNKSYELYHLDKARTAAKKEHELYLMEGFMDVIAAYRAGIPNAVASMGTALTPEHVKHLRKFTKKVILTYDGDKAGQNAIAKSLNLLSNMAVEIVRIPGQMDPDEFIKENSEEELEKLLKQARISSAEFWIEHLKPENIDNLQAEIDYVEKIAKVIAASPSITAQNTYINKVAEFLPDFDYLQVEQAVNNERLQMRSQISEQESANQQVLIDLPVTKQLTALTKAESQLFHRLLHHDYLLNEFRNRAHFKFTTPELQELYQILKTNGEINAYDLSQLSNQLQETYYRVLEENLPEEIAEDEIRQIEDQIDKCLQRQEMRKQSKAIRESSNHGDVDTAVEGLAALIAQKRNME",binds
5,"Aspartate kinase, Akh (protein, UniProt Q8DSM8 1-452) MKVVKFGGSSLASATQLEKVLNIIKSDEERRFVVVSAPGKRDAQDTKVTDALIRYYRSYTSDKDVTADQSWIINRYRAIIDELGLGQNILEKITKAIVDLANLPIEDNDFLYDTFLAAGEDNNAKLIAEYFRKNGLSARYIHPKKAGIIVTSEPGNARIIPSSYDKLEELRDSDEVLVIPGFFGVTIDNQICTFSRGGSDITGSIVAAGVKADLYENFTDVDGIFAAHPGVVHKPHSISELTYREMRELAYAGFSVLHDEALIPAYRGKIPLVIKNTNNPEHPGTKIVLAHTGATIPVVGIAGDDDFVSINLSKYLMNREIGFGRKILQVLEELNIRWEHIPTGIDDMSIILRGRELTPIKEQEIISQLTRKLEVDEVEIERNLSIIMIVGENMKNHIGVTAKAAEAFSKKHINLEMISQGSSEVSVMFVIKTEQEKQAVRALYQTFFMKDE",binds
6,"DNA topoisomerase IV subunit A, ParC (protein, UniProt Q8DTW6 1-818) MSNIQIMSLEDIMGERFGRYSKYIIQERALPDIRDGLKPVQRRILYSMNKDGNTYDKGYRKSAKSVGNVMGNFHPHGDSSIYDAMVRMSQDWKNRETLIEMHGNNGSMDGDPPAAMRYTEARLSEIADYLLQDIDKNTVAWAWNFDDTEKEPTVLPAAFPNLLVNGATGISAGYATDIPPHNLAEVIDTVVYLIDHPSAKLDKLMEFLPGPDFPTGAIIQGKDEIRKAYETGKGRVVVRSRTEIENLKGGKKQIVATEIPYEVNKAALVKKIDDVRLNNKVPGIAEVRDESDREGLRIAIELKKDADEQTILNYLFKYTDLQINYNFNMVAIDNYTPRQVGIIPMLTSYIAHRKDIIVARSKFDKEKAEKRLHIVEGLIRVISILDEVIALIRASENKADAKENLKISYDFSEEQAEAIVTLQLYRLTNTDIVTLENEEAELRERITTLNAIIGDERTMYNVMKRELREVKKKFGNPRLSELQAETQTIEIDTASLIVEEETYVSVTRGGYIKRTSPRSFNASTVEELGKRDDDDVIFIQNAKTTQELLIFTNLGNVIYRPIHELADIRWKEIGEHLSQNITNFATDEEILYVDLVDHFEEGTYYAATRLGQIKRFERRDLTPWRSYKSKAAKYAKLKGDDDQVIRISPIKLDDVMLITARGYALRFNIEEVPIVGPKAAGIKAINLKEGDSLATAFIANTDSIYILTQRGSLKRMTTNLIPVTSRAKRGLQVLRELKSKPHRVFAAGPVFSEAAGEIDLFTTVGEQGQEEILEIQSQSLEKYEVNLAELLLSERTSNGSFISDTISDQGVYAAKIKI",binds
7,"Single-stranded-DNA-specific exonuclease, RecJ (protein, UniProt Q8DT92 1-734) MITSKYAWKINEKKPDDGFFELAKKENLNPTAAQILYERGFKTSKDIEAFLRPDLSQLHDPFLLNDMDKAVTRIRRAIETNERILIYGDYDADGMTSSSIAKEALEMLGAEVEAYLPNRFTDGYGPNLSVYKYFIEQQDISLILTVDNGIAGHDAIAYAQGQGVDVIVTDHHSMPAELPSAYAVVHPEHPDANYPFKCLAGCGVAFKLACALLESIPTEMLDLVAIGTIADMVSLTDENRVMVKYGLEILKQTERVGLQELIALAGVDFADINEETIGFKLAPQLNALGRLDDPNPAVELLTGFDDEEAKTIAAMINEKNEERKTIVQAIFEEAMTLVDENKSVQVLAKEGWHAGVLGIVAGRIMEQINQPVIVLNIENGLAKGSARSLESVNIFNALDAHRDLFMAFGGHAGAAGMTLEADKLEELSQVLNDYIQEHAIDLSQKSALVIDEELYLPELSLDTLKGLETLAPFGMNNKKPIFLLRDFTVKQVRTMGQNGAHLKLKVAQEQAVFDLLAFNYGSLVTEFQQAQHLELAVTLSVNRWNGNTSLQLMLVDARVEGIQLLDIRARNSALPDGVPFLEDQTDSKAVVLFEIPEKEEDLLALFENRDFEVIYFKNRIKHQYYLTGSGTREQFAKLYKTIYQFPEFDVRHKLKELSQFLKIPDILLVKMIQIFDELDFVSIDDGIMTVNKDAQKREISDSHIYQDLKKLVKFQELMALGTPQEIYEFLKRDR",binds

# Results are given in words; binding and its absence hold for the method and conditions named. Binding seen in cells or lysates may run through a third protein. Here binding means that the protein was enriched with, or labelled near, the bait; the list need not be complete. Tags and fused reporters may be left off the sequences shown.
